Data as given in PubChem BioAssay AID1259308 (NCATS, 2017).
This is one part, drawn at random, of about 59,000 reagents tested. About 1,510 of them (2.6%) were called active. 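Calls use total luciferase alone and ignore viability, so some active siRNAs may act by altering cell number.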 Reagents against one gene are numbered here.

Aim: 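Genes whose loss raises luciferase production in HEK293 cells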 (primary screen)
Cells: human HEK293 embryonic kidney cells stably expressing firefly luciferase (HEK-CMV-Luc2-Hygro)
Reagents: single siRNA against human genes, 0.8 pmol siRNA per well
Timing: 72 h
Read-out: 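Reporter luminescence and viable-cell signal on separate replicate plates, given as percent of non-targeting control and median/MAD z-scores, plus per-cell luciferase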
Direction: total luciferase, z-score and total luciferase, % of control: higher = more reporter protein produced; luciferase per cell, z-score: higher = more reporter output per viable cell; viable cells, % of control: higher = more viable cells
Hit rule: 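Active when the median/MAD z-score for overall luciferase is greater than 3; a gene was taken forward for validation with new siRNAs if at least two of its three siRNAs passed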
Calls: active = raised luciferase; inactive = no rise

Gene	siRNA no.	total luciferase, z-score	total luciferase, % of control	luciferase per cell, z-score	viable cells, % of control	Call
EXOC7	1	0.492	91.7	1.79	63.9	inactive
EXOC7	2	0.23	86.5	0.286	89.6	inactive
EXOC7	3	1.98	121	1.84	83.4	inactive
COQ8B	1	-0.202	77.9	1.17	64	inactive
COQ8B	2	0.405	89.9	0.503	88.1	inactive
COQ8B	3	0.441	90.6	0.401	91.2	inactive
THRA	1	1.71	116	1.1	96.9	inactive
THRA	2	1.12	104	0.528	101	inactive
THRA	3	1.33	108	2.07	70.1	inactive
CALHM2	1	-0.228	77.4	-0.256	92.5	inactive
CALHM2	2	-0.83	65.4	-0.182	76.6	inactive
CALHM2	3	-0.256	76.8	0.0839	83.9	inactive
FSHR	1	-1.23	57.4	-0.615	75.5	inactive
FSHR	2	-0.771	66.5	0.292	68.9	inactive
FSHR	3	0.239	86.6	-0.135	100	inactive
ATP5PB	1	0.0948	83.8	-0.0324	94.4	inactive
ATP5PB	2	-0.215	77.6	-0.944	111	inactive
ATP5PB	3	2.9	140	2.44	82	inactive
KIR2DL4	1	-0.182	78.3	-0.184	91.8	inactive
KIR2DL4	2	0.0866	83.6	-0.211	98.8	inactive
KIR2DL4	3	-0.219	77.5	0.167	82.9	inactive
GDF7	1	0.574	93.3	0.991	80.3	inactive
GDF7	2	-1.78	46.4	-1.93	86.3	inactive
GDF7	3	0.266	87.2	1.36	68.1	inactive
LOC388282	1	-1.38	54.4	0.0643	59.7	inactive
LOC388282	2	-2.48	32.6	-2.23	65.4	inactive
LOC388282	3	-0.784	66.3	0.209	70.1	inactive
MTUS2-AS1	1	1.75	117	1.87	79.6	inactive
MTUS2-AS1	2	0.381	89.5	0.872	79.5	inactive
MTUS2-AS1	3	0.342	88.7	0.239	93.1	inactive

Next part (3 carried over from the part before).
Gene	siRNA no.	total luciferase, z-score	total luciferase, % of control	luciferase per cell, z-score	viable cells, % of control	Call
MTUS2-AS1	1	1.75	117	1.87	79.6	inactive
MTUS2-AS1	2	0.381	89.5	0.872	79.5	inactive
MTUS2-AS1	3	0.342	88.7	0.239	93.1	inactive
NLGN2	1	0.521	92.2	1.18	75.5	inactive
NLGN2	2	-0.0558	80.8	-0.258	96.6	inactive
NLGN2	3	0.273	87.3	0.394	88	inactive
RPL35P1	1	0.868	99.2	1.49	74.9	inactive
RPL35P1	2	-2.68	28.6	-2.64	64.1	inactive
RPL35P1	3	0.126	84.4	-0.0843	96.4	inactive
CD47	1	-0.0477	80.9	-0.164	94.4	inactive
CD47	2	3.9	159	2.72	87.1	active
CD47	3	-1.1	60.1	-1.32	95.1	inactive
MRPL4	1	-0.774	66.5	-0.368	81.9	inactive
MRPL4	2	-2.24	37.4	-1.71	65.5	inactive
MRPL4	3	0.438	90.6	-0.358	111	inactive
MUC13	1	-1.86	44.9	-1.96	84	inactive
MUC13	2	-1.06	60.7	-0.909	86.2	inactive
MUC13	3	0.333	88.5	0.616	84.1	inactive
TMEM256	1	1.1	104	0.477	102	inactive
TMEM256	2	-0.0197	81.5	0.154	87.4	inactive
TMEM256	3	2.57	133	2.03	87	inactive
FUS	1	-2.22	37.6	-2.47	80.6	inactive
FUS	2	0.588	93.6	0.314	96.3	inactive
FUS	3	-0.618	69.6	-0.945	99.7	inactive
DRC10	1	0.352	88.9	-0.0144	99.7	inactive
DRC10	2	0.38	89.4	0.462	88.5	inactive
DRC10	3	-0.444	73.1	0.0795	79.9	inactive
KLHDC7A	1	-0.559	70.8	-0.0485	80.1	inactive
KLHDC7A	2	2.72	136	3.02	68.7	inactive
KLHDC7A	3	1.38	109	2.09	70.5	inactive
